Patent publication US8431611B2, “Artemisinin derivatives” (Johns Hopkins University, priority 2006, dated 2013)
Like-named read-outs stand apart in the source and are kept apart here.

Test system: T. gondii strain 2F
Assay: In vitro inhibition of T. gondii (growth inhibition assay)
Assay type: cell-based, Toxoplasma gondii
Description: Normal human foreskin fibroblasts (American Type Culture Collection, Manassas, Va.) were used to grow tachyzoites and to test compounds for activity and cytotoxicity. Cells were maintained in Dulbecco's modified Eagle medium (Gibco, Grand Island, N.Y.) containing 10% fetal bovine serum (Atlas Biologicals, Fort Collins, Colo.), 25 mM HEPES (Gibco), 2 mM L-glutamine, 50 units of penicillin G per ml, and 50 μg of streptomycin sulfate per ml. A culture of the tachyzoites of T. gondii strain 2F, which constitutively expresses cytoplasmic β-galactosidase and is derived from strain RH (5), was a gift from Vern Carruthers, University of Michigan Medical School.
The compounds were tested for in vitro efficacy against T. gondii and cytotoxicity by previously published methods (9, 10). The median inhibitory dose (50% inhibitory dose [ID50]) and the median cytotoxic dose (50% toxic dose [TD50]) were calculated by extrapolation of the corresponding dose-response curve on a log-linear plot employing the portions of the curve that transected the 50% response point. For each compound, a therapeutic index (TI) was calculated by the formula TI=TD50/ID50.
Artemisinin was obtained from Holley Pharmaceuticals Co., Inc., Fullerton, Calif. Artemether was generously donated by Huiling Wang, University of Wuhan, China. Trimethoprim was purchased from Sigma Chemical Co. (St. Louis, Mo.). Chlorophenol red-β-D-galactopyranoside (Roche, Indianapolis, Ind.), 100 mM in 100 mM HEPES (pH 7.2), was stored frozen at −80° C. CellTiter 96 AQueous One Solution Reagent for determining cytotoxicity was purchased from Promega Corp., Madison, Wis.

Compound	TI (Table 1, TI=TD50/ID50)	TI (Table 2, TI = TD50/ID50)	TI
C[C@@H]1CC[C@H]2[C@@H](C)C(=O)O[C@@H]3O[C@@]4(C)CC[C@@H]1[C@]32OO4 [Artemisinin]	≧243	–	–
C[C@H]1[C@@H](CCCO)O[C@@H]2O[C@]3(C)CC[C@H]4[C@H](C)CC[C@@H]1[C@@]24OO3 [Compound 2a, ART-PrOH]	190	–	–
CC1CCC2C(C)C(CCCOC(=O)c3ccccc3)OC3OC4(C)CCC1C32OO4 (stereo not drawn) [Compound 2b]	≧933	–	–
CC1CCC2C(C)C(CCCOC(=O)c3ccccc3Br)OC3OC4(C)CCC1C32OO4 (stereo not drawn) [Compound 2c]	≧933	–	–
CC(C)=CCCC(C)CCOCCCC1OC2OC3(C)CCC4C(C)CCC(C1C)C24OO3 (stereo not drawn) [Compound 2d]	320	–	–
CC1=C(c2nccs2)OC2OC3(C)CCC4C(C)CCC1C24OO3 (stereo not drawn) [Compound 3a, DART-Thiaz]	–	975	–
CC1=C(c2nc3ccccc3s2)OC2OC3(C)CCC4C(C)CCC1C24OO3 (stereo not drawn) [Compound 3b, DART-Benzothiazole]	–	–	28
CC1=C(C=O)OC(C)C1C (stereo not drawn) [Compound 3c, DART-ald]	–	92	–
CC1=C(C(=O)O)OC(C)C1C (stereo not drawn) [Compound 3d, DART-C(O)—OH]	–	60	–
COC(=O)C1=C(C)C(C)C(C)O1 (stereo not drawn) [Compound 3e, DART-C(O)—OMe]	–	210	–
CCNC(=O)C1=C(C)C(C)C(C)O1 (stereo not drawn) [Compound 3f, DART-C(O)—NHEt]	–	52	–
C[C@H]1[C@@H](CCCO)O[C@@H]2O[C@]3(C)CC[C@H]4[C@H](C)CC[C@@H]1[C@@]24O3 [Deoxy-2a, Deoxy-ART-PrOH]	1.2	–	–
CC1=C(c2nccs2)OC2O[C@]3(C)CC[C@H]4[C@H](C)CC[C@@H]1[C@@]24O3 (stereo partly drawn) [Deoxy-3a, deoxy-DART-thiaz]	–	1.8	–
COc1cc(Cc2cnc(N)nc2N)cc(OC)c1OC [Trimethoprim, reference compound]	12	11	–
